Test results: PubChem BioAssay AID256 (DTP/NCI, 2004)
The list shows only some results of the screen, not a fair sample: it gathers tests that were run many times, whatever their T/C, doses with no T/C, and many T/C values between a quarter and a half above the control. Other doses and runs of a compound stand elsewhere. T/C: endpoint of the treated group in % of that of the vehicle group. Some entries give survivors of the animals treated and no T/C: the source files T/C as zero there, which appears to mark a toxic dose or a test without result, not a measured value. Some survivor counts are full or nearly so, which does not show that the dose was tolerated: the source hardly ever lists a survival T/C far under the control, and the zero likely stands for such cases as well. Counts of survivors are from the toxicity check (mostly the fifth day) where no day follows; animals may have died later. Schedules are NCI's codes, read here as Q, the interval in days (D) or hours (H), X, the number of doses. Some doses were run more than once; their values stand side by side, smallest first. For survival time, the PubChem record calls one and a half times the control and up active, and a quarter to a half above the control has no call in these data; cut-offs in other NCI protocols can differ. Some T/C values carry the count of animals alive at the toxicity check (mostly the fifth day); without a count, all were alive then. Signs of the kind (2×) count equal records among those shown. Some structures stand for samples that the source files as different forms (salt, stereo form or complex); doses refer to the form tested.

Test system: CD2F1 mice, L1210 leukemia ip, survival T/C
Experiment: NCI In Vivo Anticancer Drug Screen. Data for tumor model L1210 Leukemia (intraperitoneal) in CD2F1 (CDF1) mice
Conditions: higher T/C = longer survival
In short: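 Antitumor effect is scored in animals hosting a serially transplanted tumor. Values compare compound-dosed animals against vehicle-only controls as a simple quotient.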

[1] = T/C endpoint: mean survival time, dose: 100.0 mg/kg/injection, schedule: Q01DX009 (ip), vehicle: saline with Tween-80
[2] = T/C endpoint: mean survival time, dose: 200.0 mg/kg/injection, schedule: Q01DX009 (ip), vehicle: Klucel (hydroxypropylcellulose) (HPC)
[3] = T/C endpoint: mean survival time, dose: 100.0 mg/kg/injection, schedule: Q04DX003 (ip), vehicle: saline with Tween-80
[4] = T/C endpoint: mean survival time, dose: 200.0 mg/kg/injection, schedule: Q04DX003 (ip), vehicle: saline with Tween-80
[5] = T/C endpoint: mean survival time, dose: 400.0 mg/kg/injection, schedule: Q04DX003 (ip), vehicle: saline with Tween-80
[6] = T/C endpoint: mean survival time, dose: 400.0 mg/kg/injection, schedule: Q01DX009 (ip), vehicle: saline with Tween-80
[7] = T/C endpoint: mean survival time, dose: 200.0 mg/kg/injection, schedule: Q01DX009 (ip), vehicle: saline with Tween-80
[8] = T/C endpoint: mean survival time, dose: 100.0 mg/kg/injection, schedule: Q04DX002 (ip), vehicle: saline with Tween-80
[9] = T/C endpoint: mean survival time, dose: 400.0 mg/kg/injection, schedule: Q04DX002 (ip), vehicle: saline with Tween-80
[10] = T/C endpoint: mean survival time, dose: 200.0 mg/kg/injection, schedule: Q01DX001 (ip), vehicle: saline with Tween-80
[11] = T/C endpoint: mean survival time, dose: 100.0 mg/kg/injection, schedule: Q04DX003 (ip), vehicle: distilled water + Tween-80

OC1CCCC2CCCNC12 (stereo not given)
survivor count (T/C endpoint: mean survival time, dose: 100.0 mg/kg/injection, schedule: Q01DX009 (ip), vehicle: Klucel (hydroxypropylcellulose) (HPC)): 0 of 6
survivor count [1]: 0 of 6
survivor count [2]: 0 of 6

CC1(C(=O)O)CCCC2(C)c3cc(O)ccc3CCC12 (stereo not given)
survivor count [2]: 1 of 3

O=C1CSC(=S)N1/N=C/c1ccc(Cl)c(Cl)c1
survivor count (T/C endpoint: mean survival time, dose: 12.5 mg/kg/injection, schedule: Q04DX003 (ip), vehicle: saline with Tween-80): 6 of 6
survivor count (T/C endpoint: mean survival time, dose: 25.0 mg/kg/injection, schedule: Q04DX003 (ip), vehicle: saline with Tween-80): 5 of 6
survivor count [3]: 0 of 6
survivor count [4]: 0 of 6
survivor count [5]: 0 of 6

O=C1OC(=O)c2c1ccc1ccc(Cl)cc21
survivor count [6]: 1 of 6

COc1ccc(C2OC(=O)c3cccnc32)cc1OC (stereo not given)
survivor count (T/C endpoint: mean survival time, dose: 25.0 mg/kg/injection, schedule: Q01DX009 (ip), vehicle: other): 6 of 6
survivor count (T/C endpoint: mean survival time, dose: 100.0 mg/kg/injection, schedule: Q01DX009 (ip), vehicle: other): 6 of 6

Cc1cc2nc3c4ccccc4scc-3c2cc1C
survivor count [1]: 0 of 6
survivor count [7]: 0 of 6
survivor count [6]: 0 of 6

CC(C)(C)CC(C)(C)c1ccc(OCCOc2ccc(C(=O)NCCNC(=O)c3ccc4ccccc4c3O)cc2N)cc1
survivor count [1]: 6 of 6

[Pt+2].[S-]c1ccccc1.[S-]c1ccccc1.c1ccc([PH+](c2ccccc2)c2ccccc2)cc1.c1ccc([PH+](c2ccccc2)c2ccccc2)cc1
survivor count (T/C endpoint: mean survival time, dose: 200.0 mg/kg/injection, schedule: Q04DX003 (sc), vehicle: distilled water + Tween-80): 6 of 6

NCC(=O)NC1(C(=O)O)CCCC1
T/C (T/C endpoint: mean survival time, dose: 250.0 mg/kg/injection, schedule: Q04DX003 (ip), vehicle: saline): 125 % of control
T/C (T/C endpoint: mean survival time, dose: 500.0 mg/kg/injection, schedule: Q01DX001 (ip), vehicle: saline): 136 % of control

CCC1(O)C(=O)OCc2c1cc1n(c2=O)Cc2cc3ccc(N)cc3nc2-1 (stereo not given)
T/C (T/C endpoint: median survival time, dose: 10.0 mg/kg/injection, schedule: Q04DX002 (ip), vehicle: saline with Tween-80): 125 % of control
T/C (T/C endpoint: median survival time, dose: 20.0 mg/kg/injection, schedule: Q04DX002 (ip), vehicle: saline with Tween-80): 131 % of control
T/C (T/C endpoint: median survival time, dose: 40.0 mg/kg/injection, schedule: Q04DX002 (ip), vehicle: saline with Tween-80): 147 % of control
T/C (T/C endpoint: median survival time, dose: 80.0 mg/kg/injection, schedule: Q04DX002 (ip), vehicle: saline with Tween-80): 125 % of control

OCCNCc1ccc(Cl)cc1
survivor count [5]: 4 of 6

COC(=O)[C@H]1[C@H]2C[C@@H]3c4[nH]c5cc(OC)ccc5c4CCN3C[C@H]2C[C@@H](OC(=O)/C=C/c2cc(OC)c(OC)c(OC)c2)[C@@H]1OC
survivor count [3]: 0 of 6
survivor count [4]: 0 of 6
survivor count [5]: 0 of 6

CN1CC2(Cc3ccccc3)c3ccccc3NC2(NC(=O)CCl)C1=O (stereo not given)
survivor count (T/C endpoint: mean survival time, dose: 100.0 mg/kg/injection, schedule: Q01DX001 (ip), vehicle: saline with Tween-80): 6 of 6
survivor count [8]: 3 of 3
survivor count [9]: 3 of 3

CCCNC(=O)NO
survivor count (T/C endpoint: mean survival time, dose: 62.0 mg/kg/injection, schedule: Q03HX024 (ip), vehicle: saline with Tween-80): 5 of 8
survivor count (T/C endpoint: mean survival time, dose: 93.0 mg/kg/injection, schedule: Q03HX024 (ip), vehicle: saline with Tween-80): 3 of 8
survivor count (T/C endpoint: mean survival time, dose: 140.0 mg/kg/injection, schedule: Q03HX024 (ip), vehicle: saline with Tween-80): 0 of 8
survivor count (T/C endpoint: mean survival time, dose: 210.0 mg/kg/injection, schedule: Q03HX024 (ip), vehicle: saline with Tween-80): 0 of 8

ClCc1c2c(cc3c1CCCC3)CCCC2
survivor count [5]: 5 of 6

CCN(CC)C(=O)CSC#N
survivor count (T/C endpoint: mean survival time, dose: 50.0 mg/kg/injection, schedule: Q01DX001 (ip), vehicle: Klucel (hydroxypropylcellulose) (HPC)): 0 of 3
survivor count (T/C endpoint: mean survival time, dose: 100.0 mg/kg/injection, schedule: Q01DX001 (ip), vehicle: Klucel (hydroxypropylcellulose) (HPC)): 0 of 3
survivor count (T/C endpoint: mean survival time, dose: 100.0 mg/kg/injection, schedule: Q04DX002 (ip), vehicle: other): 0 of 3
survivor count (T/C endpoint: mean survival time, dose: 200.0 mg/kg/injection, schedule: Q01DX001 (ip), vehicle: Klucel (hydroxypropylcellulose) (HPC)): 0 of 3
survivor count (T/C endpoint: mean survival time, dose: 200.0 mg/kg/injection, schedule: Q04DX002 (ip), vehicle: other): 0 of 3
survivor count (T/C endpoint: mean survival time, dose: 400.0 mg/kg/injection, schedule: Q01DX001 (ip), vehicle: Klucel (hydroxypropylcellulose) (HPC)): 0 of 3
survivor count (T/C endpoint: mean survival time, dose: 400.0 mg/kg/injection, schedule: Q04DX002 (ip), vehicle: other): 0 of 3

CCOC(=O)c1ccc(NC(=O)N2CCC(CCCc3ccccc3)CC2)cc1
survivor count [10]: 3 of 6 and 6 of 6
survivor count [6]: 3 of 3
survivor count [9]: 3 of 3

O=C(Nc1ccccc1C(=O)O)c1ccccc1
survivor count [4]: 3 of 6
survivor count [5]: 1 of 6

CCCCCCCCCCCCCC[N+](C)(C)Cc1cc(=O)c(O)co1
survivor count [4]: 0 of 3
survivor count [5]: 0 of 3

Nc1ncnc(N)c1N
T/C [7]: 131 % of control
T/C [6]: 131 % of control

CCOC(=O)CN1CCC2CC1c1c([nH]c3ccccc13)C2c1cc2c(cc1OC)N(C)C1C(O)(C(=O)OC)C(OC(C)=O)C3(CC)C=CCN4CCC21C43 (stereo not given)
survivor count (T/C endpoint: mean survival time, dose: 4.0 mg/kg/injection, schedule: Q01DX009 (ip), vehicle: other): 6 of 6

Nc1ncc(CCS)c(=O)[nH]1
survivor count (T/C endpoint: mean survival time, dose: 400.0 mg/kg/injection, schedule: Q01DX001 (ip), vehicle: saline): 0 of 6

CCOC(=O)c1ccc(OC(=O)Nc2cc(C)ccc2C)cc1
T/C [1]: 98, 103, 113 [5 of 6 alive], 114 % of control
T/C [7]: 86, 100 [4 of 6 alive], 103, 114 % of control
survivor count [6]: 1 of 6 and 1 of 3

CCOc1ccccc1C1N(C)CCCN1C
survivor count [3]: 0 of 6
survivor count [4]: 0 of 6
survivor count [5]: 0 of 6

CCCOC(=O)c1ccc(NC(=O)Nc2ccc(C(=O)OCC)cc2)cc1
T/C [8]: 92, 94, 95 % of control (2×)
survivor count [10]: 6 of 6
survivor count (T/C endpoint: mean survival time, dose: 200.0 mg/kg/injection, schedule: Q04DX002 (ip), vehicle: saline with Tween-80): 3 of 3
survivor count [4]: 6 of 6
survivor count (T/C endpoint: mean survival time, dose: 400.0 mg/kg/injection, schedule: Q01DX001 (ip), vehicle: saline with Tween-80): 6 of 6
survivor count [9]: 3 of 3

[Cl][Pt+2][Cl].[NH-]CC1CCCC[N-]1 (stereo not given)
T/C (T/C endpoint: mean survival time, dose: 25.0 mg/kg/injection, schedule: Q04DX003 (ip), vehicle: distilled water + Tween-80): 142 % of control
T/C (T/C endpoint: mean survival time, dose: 50.0 mg/kg/injection, schedule: Q04DX003 (ip), vehicle: distilled water + Tween-80): 141 % of control
T/C [11]: 135 % of control
survivor count [11]: 6 of 6
survivor count (T/C endpoint: mean survival time, dose: 200.0 mg/kg/injection, schedule: Q04DX003 (ip), vehicle: distilled water + Tween-80): 6 of 6
survivor count (T/C endpoint: mean survival time, dose: 400.0 mg/kg/injection, schedule: Q04DX003 (ip), vehicle: distilled water + Tween-80): 5 of 6
T/C (T/C endpoint: median survival time, dose: 6.25 mg/kg/injection, schedule: Q04DX002 (ip), vehicle: saline): 137 % of control

CC1=NN(c2ccc(S(=O)(=O)O)cc2)C(=O)C1
survivor count [6]: 1 of 6

N=c1ccn2c(n1)OC1C(O)C(CO)OC12 (stereo not given)
T/C (T/C endpoint: mean survival time, dose: 37.5 mg/kg/injection, schedule: Q01DX005 (ip), vehicle: saline): 129 % of control
T/C (T/C endpoint: mean survival time, dose: 50.0 mg/kg/injection, schedule: Q01DX005 (ip), vehicle: saline): 150, 157, 172, 185, 188 % of control
T/C (T/C endpoint: mean survival time, dose: 100.0 mg/kg/injection, schedule: Q01DX005 (ip), vehicle: saline): 164, 168, 175, 207, 227 % of control
T/C (T/C endpoint: mean survival time, dose: 200.0 mg/kg/injection, schedule: Q01DX005 (ip), vehicle: saline): 193, 194 (2×), 225, 228 % of control
T/C (T/C endpoint: mean survival time, dose: 400.0 mg/kg/injection, schedule: Q01DX005 (ip), vehicle: saline): 155 [5 of 6 alive], 195, 213, 239, 276 % of control
T/C (T/C endpoint: median survival time, dose: 300.0 mg/kg/injection, schedule: Q01DX009 (ip), vehicle: water): 127 % of control
T/C (T/C endpoint: median survival time, dose: 400.0 mg/kg/injection, schedule: Q01DX009 (ip), vehicle: water): 147 % of control
